Data taken from ChEMBL document CHEMBL3988442, “University of Dundee, Small-Polar-MMV Screening Library” (2021).

Amino acid sequences for entries named in this document (tags omitted). Residues count along the entry.
UniProt P9WPC5, whole entry: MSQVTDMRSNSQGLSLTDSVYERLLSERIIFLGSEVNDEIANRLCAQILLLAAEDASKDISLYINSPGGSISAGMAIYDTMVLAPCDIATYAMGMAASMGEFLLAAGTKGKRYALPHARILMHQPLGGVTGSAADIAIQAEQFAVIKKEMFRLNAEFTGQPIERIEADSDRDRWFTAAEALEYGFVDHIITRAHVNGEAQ
UniProt P9WPC3, whole entry partner: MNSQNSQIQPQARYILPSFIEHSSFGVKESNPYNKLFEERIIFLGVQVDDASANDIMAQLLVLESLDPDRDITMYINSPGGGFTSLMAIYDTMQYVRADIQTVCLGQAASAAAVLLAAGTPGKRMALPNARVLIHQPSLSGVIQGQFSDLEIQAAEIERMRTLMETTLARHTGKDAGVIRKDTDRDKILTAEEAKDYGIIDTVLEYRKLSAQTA
UniProt P9WNZ1, whole entry: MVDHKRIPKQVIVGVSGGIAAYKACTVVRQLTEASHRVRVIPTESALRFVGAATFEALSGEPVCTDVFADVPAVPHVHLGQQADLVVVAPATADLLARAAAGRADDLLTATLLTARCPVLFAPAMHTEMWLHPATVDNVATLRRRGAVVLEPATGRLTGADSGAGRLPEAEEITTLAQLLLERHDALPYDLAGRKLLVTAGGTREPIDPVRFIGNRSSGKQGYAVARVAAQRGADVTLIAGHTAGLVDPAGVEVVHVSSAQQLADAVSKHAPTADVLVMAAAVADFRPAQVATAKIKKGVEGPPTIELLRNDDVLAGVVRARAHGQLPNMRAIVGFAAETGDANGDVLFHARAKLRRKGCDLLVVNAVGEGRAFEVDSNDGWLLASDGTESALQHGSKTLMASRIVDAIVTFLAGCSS
UniProt A4I591, 1-473: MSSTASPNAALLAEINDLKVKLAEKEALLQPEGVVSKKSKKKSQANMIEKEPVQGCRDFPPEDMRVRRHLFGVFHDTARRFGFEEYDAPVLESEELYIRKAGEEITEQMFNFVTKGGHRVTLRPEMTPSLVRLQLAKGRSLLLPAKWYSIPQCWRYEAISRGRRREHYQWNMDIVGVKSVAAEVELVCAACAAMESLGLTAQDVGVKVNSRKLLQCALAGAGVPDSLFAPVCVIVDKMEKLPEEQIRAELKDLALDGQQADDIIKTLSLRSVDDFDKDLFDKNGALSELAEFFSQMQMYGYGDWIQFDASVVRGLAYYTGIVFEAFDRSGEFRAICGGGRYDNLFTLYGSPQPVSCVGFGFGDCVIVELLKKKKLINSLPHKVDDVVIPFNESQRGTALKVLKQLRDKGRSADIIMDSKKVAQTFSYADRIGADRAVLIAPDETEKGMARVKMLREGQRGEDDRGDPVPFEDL

Values are the deposited “Percent Effect”, in %. How 0% and 100% were set is not recorded. Most values in the screen are low, and negative values occur. Compounds were drawn at random from those tested, without regard to their results.

A: 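Protease assay of ClpP1P2, read by the AMC dye that it sets free. Target: ClpP1P2, Mycobacterium tuberculosis (UniProt P9WPC5 and UniProt P9WPC3). Tested at 50 µM. Higher reads as stronger inhibition, judged from the few compounds that gave an IC50. Most other retested compounds had strongly negative values. Of about 69,000 compounds tested this way, about 10 (0.015%) reached 50% or more in at least one test.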
B: 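Enzyme assay of CoaBC with a phosphate dye (Biomol Green) read at 650 nm. Target: Coenzyme A biosynthesis protein CoaBC, Mycobacterium tuberculosis (UniProt P9WNZ1). Tested at 30 µM. Direction is inferred from only a few compounds that gave an IC50; most scored high, so higher reads as stronger inhibition. Most strong results did not repeat in a second test. Of about 67,000 compounds tested this way, about 40 (0.06%) reached 50% or more in at least one test.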
C: 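Cell assay of Leishmania donovani living inside macrophages; the read-out is not stated. Concentration: 30 µM. Higher reads as stronger inhibition (inferred: compounds with an IC50 in retests scored well above the rest). Size under these conditions: about 69,000 compounds, about 1,000 of them at 50% or above in at least one test.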
D: 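Histidine-tRNA ligase, Leishmania infantum (UniProt A4I591). Enzyme assay of histidyl-tRNA synthetase; the read-out is not stated. Concentration: 30 µM. The record gives no direction; compounds that gave an IC50 in retests scored well above the rest, so higher reads as stronger inhibition. The assay is labelled LdHisRS but filed under L. infantum. About 69,000 compounds were tested under these conditions; 0.6% (about 410) showed 50% or more at least once.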

structure: CN(CCNC(=O)Nc1ccn(C)n1)Cc1ccc(F)cc1
A: -14.2
B: 8.657
C: -20.54
D: 1.205

structure: CC(C)CSCCN1CCCN(S(C)(=O)=O)CC1
A: 28.81
B: 0.3367
C: 6.004
D: 15.96

structure: CC(C)C1CN(C(=O)c2cc(=O)[nH]c(=O)[nH]2)CCCN1CC1CC1 (stereo not shown)
A: 9.025
B: 0.6593
C: 13.02
D: 17.14

structure: Cc1ccc(OC2(C(=O)N(C)Cc3ccoc3)CCNCC2)cc1
A: -4.141
B: -22.31
C: 83.11
D: 5.333

structure: CC(C)c1nnc2n1CCN(C(=O)c1ccc3cc[nH]c3c1)C2
A: 0.3305
B: 6.389
C: -23.14
D: 20.27

structure: CC(C)(C)c1cc(CN2C[C@H]3CC[C@@H]2CN(Cc2cscn2)C3)n[nH]1
A: -15.13
B: -24.46
D: 11.48

structure: Cn1cncc1CN1CCCC1c1cncc(Oc2ccc(Cl)cc2)n1 (stereo not shown)
A: -3.758
B: 3.09
C: 60.52
D: 13.1

structure: COC(=O)c1cccc(C(=O)NCc2ccc3c(c2)CCCN3C)c1
A: -6.635
B: 5.839
C: 34.11
D: 12.28

structure: O=C(O)C(F)(F)F.O=C(O)C(F)(F)F.c1cc(CN2CCc3ncc(CN4CCOCC4)n3CC2)cs1
C: -24.52

structure: CC(=O)N1CCCN(C(=O)NC(C)c2ccc(C)o2)CC1 (stereo not shown)
A: -8.2
B: -1.29
C: 14.62
D: 6.579

structure: O=C(Cn1c(C(F)F)cc2cccnc21)NC1CCCC1
A: -1.917
B: -1.36
C: 15.29
D: 6.207

structure: O=C(NCCc1cc2nc(-c3ccncc3)ccn2n1)C1CCOCC1
A: -14.04
B: -13.56
C: 16.32
D: 2.817

structure: CCOC(C)C(=O)Nc1ccc2c(ccn2CC)c1 (stereo not shown)
A: -7.087
B: -4.382
C: 10.39
D: 2.74

structure: O=C(c1cn2ccsc2n1)N1CCN(CC2CC2)[C@@H]2CS(=O)(=O)C[C@@H]21
A: 8.032
B: 2.755
D: 26.53

structure: CS(=O)(=O)N1CCC(c2ccncn2)CC1
A: -2.773
B: 3.337
C: 13.24
D: 6.207

structure: COCCNc1cccc(C2CCCN2)n1 (stereo not shown)
A: -7.702
B: 5.562
C: 17.72
D: 10.34

structure: COCCN(C)C[C@H]1C[C@H](CO)CN(C(=O)c2ccc(=O)n(C)c2)C1
A: -2.005
B: 6.734
C: 26.97
D: 9.574

structure: CN(Cc1noc(C2CC2)n1)C1CCN(CCc2cnn(C)c2)C1 (stereo not shown)
A: -32.02
B: -2.611
C: 15.48
D: 10.34